Data on eleven sequences can be found in article PMC8384837.

Substitutions are numbered along the chain they refer to. The list shows a part of the results. For some assays here: At the low end of the ranking, values are background and their order means little. Bounds are passed on as bounds.

For the first experiment, the target named is T1, PUM1 PUF domain R3-THE R4-TFR C935T + R936H + Q939E + N971T + H972F + Q975R (UniProt Q14671).
T1 sequence: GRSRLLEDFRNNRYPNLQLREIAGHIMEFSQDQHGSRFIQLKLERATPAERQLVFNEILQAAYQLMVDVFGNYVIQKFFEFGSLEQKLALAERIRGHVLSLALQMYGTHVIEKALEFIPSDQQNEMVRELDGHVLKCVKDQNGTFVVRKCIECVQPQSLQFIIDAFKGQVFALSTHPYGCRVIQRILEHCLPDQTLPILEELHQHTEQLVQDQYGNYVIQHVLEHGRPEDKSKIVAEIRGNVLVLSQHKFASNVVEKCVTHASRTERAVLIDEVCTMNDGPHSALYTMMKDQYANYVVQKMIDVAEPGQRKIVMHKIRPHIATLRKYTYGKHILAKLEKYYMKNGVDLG
Particulars: yeast three-hybrid, YBZ-1, SC-Leu-His + 0.5 mM 3-AT, 4 days.
With “GGCUAGAACUAGUGGAUCCCCCGGCGCCCGGCGGCUCGAGCCCGGGUAAGGGAAGAUAGUCUGCAUGCCGCCGGGCGCCAUGCCUGCAGGUCGACUCUAGAAAACAUG”, the binding signal (log2 enrichment (interaction score)) was -8.
Still for that read-out and setting: the value for “GGCUAGAACUAGUGGAUCCCCCGGCGCCCGGCGGCUCGAGCCCGGGUAAGUGGUCGUAGUCUGCAUGCCGCCGGGCGCCAUGCCUGCAGGUCGACUCUAGAAAACAUG” was -7.77.
On to “GGCUAGAACUAGUGGAUCCCCCGGCGCCCGGCGGCUCGAGCCCGGGUAAGCAUAAUUAGUCUGCAUGCCGCCGGGCGCCAUGCCUGCAGGUCGACUCUAGAAAACAUG”, for which the binding signal (log2 enrichment (interaction score)) was -8.03.
On the same count and under the same terms, for “GGCUAGAACUAGUGGAUCCCCCGGCGCCCGGCGGCUCGAGCCCGGGUAAGUUGACAUUGUCUGCAUGCCGCCGGGCGCCAUGCCUGCAGGUCGACUCUAGAAAACAUG” the value was below -7.64; for “GGCUAGAACUAGUGGAUCCCCCGGCGCCCGGCGGCUCGAGCCCGGGUAAGUUAACGGUGUCUGCAUGCCGCCGGGCGCCAUGCCUGCAGGUCGACUCUAGAAAACAUG”, below -7.65.

The target of another experiment is T2, PUM1 PUF domain R3-THE R4-TFR R7-NPG C935T + R936H + Q939E + N971T + H972F + Q975R + S1079N + N1080P + E1083G (Homo sapiens) (UniProt Q14671).
T2 sequence: T1 sequence with S252N, N253P, E256G
Particulars: yeast three-hybrid, YBZ-1, SC-Leu-His + 0.5 mM 3-AT, 4 days.
For “GGCUAGAACUAGUGGAUCCCCCGGCGCCCGGCGGCUCGAGCCCGGGUAAGUUCCAGCAGUCUGCAUGCCGCCGGGCGCCAUGCCUGCAGGUCGACUCUAGAAAACAUG”, the binding signal (log2 enrichment (interaction score)) was below -1.18.
The same measure, in the same setting: the value for “GGCUAGAACUAGUGGAUCCCCCGGCGCCCGGCGGCUCGAGCCCGGGUAAGCAGAUAUAGUCUGCAUGCCGCCGGGCGCCAUGCCUGCAGGUCGACUCUAGAAAACAUG” was -1.71.
The same measure, in the same setting: the value for “GGCUAGAACUAGUGGAUCCCCCGGCGCCCGGCGGCUCGAGCCCGGGUAAGUUAAAGACGUCUGCAUGCCGCCGGGCGCCAUGCCUGCAGGUCGACUCUAGAAAACAUG” was -1.64.
Same read-out and setting: for “GGCUAGAACUAGUGGAUCCCCCGGCGCCCGGCGGCUCGAGCCCGGGUAAGAGUGAAUAGUCUGCAUGCCGCCGGGCGCCAUGCCUGCAGGUCGACUCUAGAAAACAUG” the value was -0.81.
On to “GGCUAGAACUAGUGGAUCCCCCGGCGCCCGGCGGCUCGAGCCCGGGUAAGUUUAGAACGUCUGCAUGCCGCCGGGCGCCAUGCCUGCAGGUCGACUCUAGAAAACAUG”, for which the binding signal (log2 enrichment (interaction score)) was -1.51.
As for “GGCUAGAACUAGUGGAUCCCCCGGCGCCCGGCGGCUCGAGCCCGGGUAAGUGGACAGAGUCUGCAUGCCGCCGGGCGCCAUGCCUGCAGGUCGACUCUAGAAAACAUG”, the binding signal (log2 enrichment (interaction score)) is -1.69.
